The campaign covered roughly 220,000 compounds. About 16,000 (7.3%) were called active. Only results without a clear call are listed here; the source files them as inconclusive. Calls come from the whole dose curve; as a rule, active = well fitted inhibition curve with a large enough effect (not every such curve was filed as active); inconclusive = small, poorly fitted or top-dose-only effect, or another doubt; inactive = no such curve, though single readings can be large or run the other way. Some of these compounds have results that are not shown, active ones among them.
Target: Aldehyde dehydrogenase 1A1 (Homo sapiens) (UniProt P00352)
Assay: qHTS Assay for Inhibitors of Aldehyde Dehydrogenase 1 (ALDH1A1)
Details: Purified ALDH1A1, NADH fluorescence, propionaldehyde substrate
Potency is the fitted concentration of half-maximal effect.

Sequences of proteins named here, by UniProt entry; tags and fusion partners are left off.
UniProt P00352, whole entry: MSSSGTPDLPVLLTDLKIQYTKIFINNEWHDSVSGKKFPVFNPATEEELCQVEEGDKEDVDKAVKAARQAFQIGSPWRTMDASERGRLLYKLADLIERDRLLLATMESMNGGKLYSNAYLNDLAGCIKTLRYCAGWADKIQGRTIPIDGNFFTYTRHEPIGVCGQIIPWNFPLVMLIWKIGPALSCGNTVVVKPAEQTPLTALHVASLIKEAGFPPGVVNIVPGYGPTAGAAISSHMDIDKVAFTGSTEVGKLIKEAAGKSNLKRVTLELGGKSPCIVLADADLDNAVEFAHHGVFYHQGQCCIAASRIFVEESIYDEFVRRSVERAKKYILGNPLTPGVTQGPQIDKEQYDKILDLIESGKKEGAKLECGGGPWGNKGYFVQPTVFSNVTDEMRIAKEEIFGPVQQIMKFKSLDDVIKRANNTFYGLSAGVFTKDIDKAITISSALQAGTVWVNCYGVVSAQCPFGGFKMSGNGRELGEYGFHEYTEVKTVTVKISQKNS

Structure (SMILES)	Potency
CC(C)N1C(=O)CC2(CCN(CCOC(=O)C(O)(c3ccccc3)c3ccccc3)CC2)C1=O	inconclusive: 12.6 µM
C=CCN1CCN(CCOC(=O)C(O)(c2ccccc2)c2ccccc2)CC1	inconclusive: 39.8 µM
CN(C)C1CCCC1OC(=O)C(O)(c1ccccc1)c1ccccc1 (stereo not drawn)	inconclusive: 44.7 µM

Source: PubChem BioAssay AID1030 (National Center for Advancing Translational Sciences (NCATS), 2008)
